{"source": "patent US20180044640A1", "about": "“CONTRACTILE CELLULAR CONSTRUCT FOR CELL CULTURE” (Agency for Science, Technology and Research, priority 2015, published 2018)", "note": "Some results were stated once for a whole list of compounds, not compound by compound.", "data": [{"system": "Cardiac spheroids", "test": "Toxicity assay based on ATP activity (CellTiter-Glo 3D cell viability assay)", "parameters": "species or system human", "settings": "1 hr incubation, normalized to drug-free controls", "values": [{"smiles": "CN(CCOc1ccc(CC2SC(=O)NC2=O)cc1)c1ccccn1", "note": "(stereo not drawn) [rosiglitazone, Rosiglitazone]", "Concentration up to which negligible / no significant toxicity was detected (ATP-based cell viability)": "up to 200 μM"}, {"smiles": "Cc1c(C)c2c(c(C)c1O)CCC(C)(COc1ccc(CC3SC(=O)NC3=O)cc1)O2", "note": "(stereo not drawn) [troglitazone]", "Concentration up to which negligible / no significant toxicity was detected (ATP-based cell viability)": "up to 200 μM"}, {"smiles": "N[C@@H]1[C@H]2CN(c3nc4c(cc3F)c(=O)c(C(=O)O)cn4-c3ccc(F)cc3F)C[C@@H]12", "note": "[trovafloxacin]", "Concentration up to which negligible / no significant toxicity was detected (ATP-based cell viability)": "up to 200 μM"}]}]}
